According to patent publication US20250074980A1 (BRIGHAM AND WOMEN S HOSPITAL, published 2025):
No constants are given. Whether binding was seen depends on the method and setting. Some entries that bind do so weakly or less than the wild type.

T1: CEACAM1 on transfected HeLa cells (human, UniProt P13688 35-526)
T1 construct: also called HeLa-CEACAM1; HeLa C1
T1 sequence: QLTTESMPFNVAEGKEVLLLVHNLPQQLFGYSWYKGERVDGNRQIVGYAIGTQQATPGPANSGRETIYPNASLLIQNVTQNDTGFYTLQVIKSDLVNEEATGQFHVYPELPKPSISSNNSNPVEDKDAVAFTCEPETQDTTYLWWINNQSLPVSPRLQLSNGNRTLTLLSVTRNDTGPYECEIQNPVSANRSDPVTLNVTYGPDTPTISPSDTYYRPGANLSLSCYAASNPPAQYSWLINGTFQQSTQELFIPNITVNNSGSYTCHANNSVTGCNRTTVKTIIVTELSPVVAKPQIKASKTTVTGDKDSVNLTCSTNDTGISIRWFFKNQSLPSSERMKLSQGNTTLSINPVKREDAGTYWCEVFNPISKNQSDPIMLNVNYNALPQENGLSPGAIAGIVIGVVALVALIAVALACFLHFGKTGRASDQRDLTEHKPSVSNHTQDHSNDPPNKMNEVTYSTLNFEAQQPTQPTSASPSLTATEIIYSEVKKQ

B1: VH1/Vκ1 (antibody, IgG4, V domains shown)
VH: EVQLLESGGGLVQPGGSLRLSCAASGFIFSSHGMSWVRQAPGKGLEWVATISSGGTYTYYPDSVKGRFTISRDNSKNTLYLQMNSLKAEDTAMYYCARHDFDYDAAWFAYWGQGTLVTVSS
VL: QIVLTQSPALLSLSPGERATMSCSANSSVSYMYWYRQKPGQAPKPWIYLTSNLASGVPARFSGSGSGTDYTLTISSLEAEDFATYYCQQWSSNPPTFGQGTKLEIK
notes: IgG4 (S241P), kappa
B2: VH1/Vκ2 (antibody, IgG4, V domains shown)
VH: EVQLLESGGGLVQPGGSLRLSCAASGFIFSSHGMSWVRQAPGKGLEWVATISSGGTYTYYPDSVKGRFTISRDNSKNTLYLQMNSLKAEDTAMYYCARHDFDYDAAWFAYWGQGTLVTVSS
VL: EIVLTQSPATLSLSPGERATLSCRANSSVSYMYWYQQKPGQAPRPWIYLTSNRATGVPARFSGSGSGTDYTLTISSLEPEDFATYYCQQWSSNPPTFGQGTKLEIK
notes: IgG4 (S241P), kappa
B3: VH1/Vκ4 (antibody, IgG4, V domains shown)
VH: EVQLLESGGGLVQPGGSLRLSCAASGFIFSSHGMSWVRQAPGKGLEWVATISSGGTYTYYPDSVKGRFTISRDNSKNTLYLQMNSLKAEDTAMYYCARHDFDYDAAWFAYWGQGTLVTVSS
VL: EIVLTQSPATLSLSPGERATLSCRANSSVSYMYWYQQKPGQAPRPWIYLTSNRATGIPARFSGSGSGTDYTLTISSLEPEDFATYYCQQWSSNPPTFGQGTKLEIK
notes: IgG4 (S241P), kappa
B4: VH1/Vκ7 (antibody, IgG4, V domains shown)
VH: EVQLLESGGGLVQPGGSLRLSCAASGFIFSSHGMSWVRQAPGKGLEWVATISSGGTYTYYPDSVKGRFTISRDNSKNTLYLQMNSLKAEDTAMYYCARHDFDYDAAWFAYWGQGTLVTVSS
VL: EIVLTQSPATLSLSPGERATLSCRANSSVSYMYWYQQKPGQAPRPWIYLTSNRATGVPARFSGSGSGTDFTLTISSLEPEDFATYYCQQWSSNPPTFGQGTKLEIK
notes: IgG4 (S241P), kappa
B5: VH1/Vκ9 (antibody, IgG4, V domains shown)
VH: EVQLLESGGGLVQPGGSLRLSCAASGFIFSSHGMSWVRQAPGKGLEWVATISSGGTYTYYPDSVKGRFTISRDNSKNTLYLQMNSLKAEDTAMYYCARHDFDYDAAWFAYWGQGTLVTVSS
VL: EIVLTQSPATLSLSPGERATLSCRANSSVSYMYWYQQKPGQAPRPLIYLTSNRATGVPARFSGSGSGTDYTLTISSLEPEDFATYYCQQWSSNPPTFGQGTKLEIK
notes: IgG4 (S241P), kappa
B6: VH1/Vκ10 (antibody, IgG4, V domains shown)
VH: EVQLLESGGGLVQPGGSLRLSCAASGFIFSSHGMSWVRQAPGKGLEWVATISSGGTYTYYPDSVKGRFTISRDNSKNTLYLQMNSLKAEDTAMYYCARHDFDYDAAWFAYWGQGTLVTVSS
VL: EIVLTQSPATLSLSPGERATLSCRANSSVSYMYWYQQKPGQAPRPWIYLTSNRATGIPARFSGSGSGTDFTLTISSLEPEDFATYYCQQWSSNPPTFGQGTKLEIK
notes: IgG4 (S241P), kappa
B7: VH1/Vκ11 (antibody, IgG4, V domains shown)
VH: EVQLLESGGGLVQPGGSLRLSCAASGFIFSSHGMSWVRQAPGKGLEWVATISSGGTYTYYPDSVKGRFTISRDNSKNTLYLQMNSLKAEDTAMYYCARHDFDYDAAWFAYWGQGTLVTVSS
VL: EIVLTQSPATLSLSPGERATLSCRANSSVSYMYWYQQKPGQAPRPWIYLTSNRATGIPARFSGSGSGTDYTLTISSLEPEDFAVYYCQQWSSNPPTFGQGTKLEIK
notes: IgG4 (S241P), kappa
B8: VH1/Vκ12 (antibody, IgG4, V domains shown)
VH: EVQLLESGGGLVQPGGSLRLSCAASGFIFSSHGMSWVRQAPGKGLEWVATISSGGTYTYYPDSVKGRFTISRDNSKNTLYLQMNSLKAEDTAMYYCARHDFDYDAAWFAYWGQGTLVTVSS
VL: EIVLTQSPATLSLSPGERATLSCRANSSVSYMYWYQQKPGQAPRPLIYLTSNRATGIPARFSGSGSGTDYTLTISSLEPEDFATYYCQQWSSNPPTFGQGTKLEIK
notes: IgG4 (S241P), kappa
B9: VH2/Vκ1 (antibody, IgG4, V domains shown)
VH: EVQLLESGGGLVQPGGSLRLSCAASGFIFSSHGMSWVRQAPGKGLEWVATISSGGTYTYYPDSVKGRFTISRDNSKNTLYLQMNSLRAEDTAMYYCARHDFDYDAAWFAYWGQGTLVTVSS
VL: QIVLTQSPALLSLSPGERATMSCSANSSVSYMYWYRQKPGQAPKPWIYLTSNLASGVPARFSGSGSGTDYTLTISSLEAEDFATYYCQQWSSNPPTFGQGTKLEIK
notes: IgG4 (S241P), kappa
B10: VH2/Vκ7 (antibody, IgG4, V domains shown)
VH: EVQLLESGGGLVQPGGSLRLSCAASGFIFSSHGMSWVRQAPGKGLEWVATISSGGTYTYYPDSVKGRFTISRDNSKNTLYLQMNSLRAEDTAMYYCARHDFDYDAAWFAYWGQGTLVTVSS
VL: EIVLTQSPATLSLSPGERATLSCRANSSVSYMYWYQQKPGQAPRPWIYLTSNRATGVPARFSGSGSGTDFTLTISSLEPEDFATYYCQQWSSNPPTFGQGTKLEIK
notes: IgG4 (S241P), kappa
B11: VH2/Vκ8 (antibody, IgG4, V domains shown)
VH: EVQLLESGGGLVQPGGSLRLSCAASGFIFSSHGMSWVRQAPGKGLEWVATISSGGTYTYYPDSVKGRFTISRDNSKNTLYLQMNSLRAEDTAMYYCARHDFDYDAAWFAYWGQGTLVTVSS
VL: EIVLTQSPATLSLSPGERATLSCRANSSVSYMYWYQQKPGQAPRPWIYLTSNRATGVPARFSGSGSGTDYTLTISSLEPEDFAVYYCQQWSSNPPTFGQGTKLEIK
notes: IgG4 (S241P), kappa
B12: VH2/Vκ9 (antibody, IgG4, V domains shown)
VH: EVQLLESGGGLVQPGGSLRLSCAASGFIFSSHGMSWVRQAPGKGLEWVATISSGGTYTYYPDSVKGRFTISRDNSKNTLYLQMNSLRAEDTAMYYCARHDFDYDAAWFAYWGQGTLVTVSS
VL: EIVLTQSPATLSLSPGERATLSCRANSSVSYMYWYQQKPGQAPRPLIYLTSNRATGVPARFSGSGSGTDYTLTISSLEPEDFATYYCQQWSSNPPTFGQGTKLEIK
notes: IgG4 (S241P), kappa
B13: VH2/Vκ10 (antibody, IgG4, V domains shown)
VH: EVQLLESGGGLVQPGGSLRLSCAASGFIFSSHGMSWVRQAPGKGLEWVATISSGGTYTYYPDSVKGRFTISRDNSKNTLYLQMNSLRAEDTAMYYCARHDFDYDAAWFAYWGQGTLVTVSS
VL: EIVLTQSPATLSLSPGERATLSCRANSSVSYMYWYQQKPGQAPRPWIYLTSNRATGIPARFSGSGSGTDFTLTISSLEPEDFATYYCQQWSSNPPTFGQGTKLEIK
notes: IgG4 (S241P), kappa
B14: VH2/Vκ11 (antibody, IgG4, V domains shown)
VH: EVQLLESGGGLVQPGGSLRLSCAASGFIFSSHGMSWVRQAPGKGLEWVATISSGGTYTYYPDSVKGRFTISRDNSKNTLYLQMNSLRAEDTAMYYCARHDFDYDAAWFAYWGQGTLVTVSS
VL: EIVLTQSPATLSLSPGERATLSCRANSSVSYMYWYQQKPGQAPRPWIYLTSNRATGIPARFSGSGSGTDYTLTISSLEPEDFAVYYCQQWSSNPPTFGQGTKLEIK
notes: IgG4 (S241P), kappa
B15: VH2/Vκ12 (antibody, IgG4, V domains shown)
VH: EVQLLESGGGLVQPGGSLRLSCAASGFIFSSHGMSWVRQAPGKGLEWVATISSGGTYTYYPDSVKGRFTISRDNSKNTLYLQMNSLRAEDTAMYYCARHDFDYDAAWFAYWGQGTLVTVSS
VL: EIVLTQSPATLSLSPGERATLSCRANSSVSYMYWYQQKPGQAPRPLIYLTSNRATGIPARFSGSGSGTDYTLTISSLEPEDFATYYCQQWSSNPPTFGQGTKLEIK
notes: IgG4 (S241P), kappa
B16: VH3/Vκ2 (antibody, IgG4, V domains shown)
VH: EVQLLESGGGLVQPGGSLRLSCAASGFIFSSHGMSWVRQAPGKGLEWVATISSGGTYTYYADSVKGRFTISRDNSKNTLYLQMNSLRAEDTAMYYCARHDFDYDAAWFAYWGQGTLVTVSS
VL: EIVLTQSPATLSLSPGERATLSCRANSSVSYMYWYQQKPGQAPRPWIYLTSNRATGVPARFSGSGSGTDYTLTISSLEPEDFATYYCQQWSSNPPTFGQGTKLEIK
notes: IgG4 (S241P), kappa
B17: VH3/Vκ4 (antibody, IgG4, V domains shown)
VH: EVQLLESGGGLVQPGGSLRLSCAASGFIFSSHGMSWVRQAPGKGLEWVATISSGGTYTYYADSVKGRFTISRDNSKNTLYLQMNSLRAEDTAMYYCARHDFDYDAAWFAYWGQGTLVTVSS
VL: EIVLTQSPATLSLSPGERATLSCRANSSVSYMYWYQQKPGQAPRPWIYLTSNRATGIPARFSGSGSGTDYTLTISSLEPEDFATYYCQQWSSNPPTFGQGTKLEIK
notes: IgG4 (S241P), kappa
B18: VH4/Vκ2 (antibody, IgG4, V domains shown)
VH: EVQLLESGGGLVQPGGSLRLSCAASGFIFSSHGMSWVRQAPGKGLEWVSTISSGGTYTYYADSVKGRFTISRDNSKNTLYLQMNSLRAEDTAVYYCARHDFDYDAAWFAYWGQGTLVTVSS
VL: EIVLTQSPATLSLSPGERATLSCRANSSVSYMYWYQQKPGQAPRPWIYLTSNRATGVPARFSGSGSGTDYTLTISSLEPEDFATYYCQQWSSNPPTFGQGTKLEIK
notes: IgG4 (S241P), kappa
B19: VH4/Vκ4 (antibody, IgG4, V domains shown)
VH: EVQLLESGGGLVQPGGSLRLSCAASGFIFSSHGMSWVRQAPGKGLEWVSTISSGGTYTYYADSVKGRFTISRDNSKNTLYLQMNSLRAEDTAVYYCARHDFDYDAAWFAYWGQGTLVTVSS
VL: EIVLTQSPATLSLSPGERATLSCRANSSVSYMYWYQQKPGQAPRPWIYLTSNRATGIPARFSGSGSGTDYTLTISSLEPEDFATYYCQQWSSNPPTFGQGTKLEIK
notes: IgG4 (S241P), kappa
B20: VH2/Vκ2 (antibody, IgG4, V domains shown)
VH: EVQLLESGGGLVQPGGSLRLSCAASGFIFSSHGMSWVRQAPGKGLEWVATISSGGTYTYYPDSVKGRFTISRDNSKNTLYLQMNSLRAEDTAMYYCARHDFDYDAAWFAYWGQGTLVTVSS
VL: EIVLTQSPATLSLSPGERATLSCRANSSVSYMYWYQQKPGQAPRPWIYLTSNRATGVPARFSGSGSGTDYTLTISSLEPEDFATYYCQQWSSNPPTFGQGTKLEIK
notes: IgG4 (S241P), kappa

Biological target: T1, CEACAM1 on transfected HeLa cells
Test: flow cytometry, HeLa-CEACAM1 transfectants, % positive cells

Binder | binding
B1 | binds
B2 | binds
B3 | binds
B4 | binds
B5 | binds
B6 | binds
B7 | binds
B8 | binds
B9 | binds
B10 | binds
B11 | binds
B12 | binds
B13 | binds
B14 | binds
B15 | binds
B16 | binds
B17 | binds
B18 | binds
B19 | binds
B20 | binds
